Experimental data published in publication PMC12040169 (PLOS Biology, 2025).
The list shows a part of the results.

What follows are compounds tested on T1, CTL2-GFP (C. trachomatis L2/434/Bu, GFP-expressing). Conditions: bulk GFP, single well; 28.5 h, 10 µM; inhibitor.
T1 construct: L2/434/Bu, GFP-expressing
Design: species or system HeLa; Intracellular C. trachomatis growth in HeLa cells, bulk GFP fluorescence relative to DMSO
`CS(=O)(=O)N(CC(=O)Nc1ccc(S(=O)(=O)N2CCCCC2)cc1)c1ccc2c(c1)OCO2` [CBK268189] was tested, and the “% of control remaining” value was 102.082%.
In the case of `CC(C(=O)N1CCC(c2cc3cccnc3[nH]2)CC1)N1CCCC1=O` (stereo not shown) [CBK282705], the “% of control remaining” value is reported as 105.888%.
For `OCc1ccccc1-c1cncc(NCC2CCOCC2)n1` [CBK037309], the “% of control remaining” value was 119.344%.
For `Cc1ccc(Oc2cc(-n3nc(C)c(C(N)=O)c3N)ncn2)cc1` [CBK099753], the “% of control remaining” value was 109.997%.
`N=C1S/C(=C/c2ccc(-c3ccccc3C(=O)O)o2)C(=O)N1c1nccs1` [CBK077624] was tested, and the “% of control remaining” value was 107.677%.
In the case of `CC(=O)N/C(=C\c1ccccc1)C(=O)NC(C)C(=O)O` (stereo not shown) [CBK261491], the “% of control remaining” value is reported as 102.327%.
For `CS(=O)(=O)N[C@H]1C[C@H]2C(=O)Nc3ccc(-c4cccs4)cc3C(=O)N2C1` [CBK289359], the “% of control remaining” value was 123.186%.
`Cc1ccc(CCC2CCN(C(=O)c3ccc(O)nc3)CC2)cc1` [CBK296724] was tested, and the “% of control remaining” value was 109.577%.
`COCC(=O)N1CCc2sccc2C1c1ccc(NCc2ccc(OC)cc2)cc1` (stereo not shown) [CBK286458] was tested, and the “% of control remaining” value was 118.287%.
With `c1ccc(-n2nnnc2SCc2cccc(CSc3nnnn3-c3ccccc3)n2)cc1` [CBK263258] the “% of control remaining” value was 100%.
For `O=C(O)CCC(=O)Nc1ccccc1NC(=O)c1ccc(C(F)(F)F)cc1` [CBK265770], the “% of control remaining” value was 102.328%.
With `COc1ccccc1C1CCN(C(=O)c2ccc(C(C)(C)C)cc2)CC1` [CBK086469] the “% of control remaining” value was 144.11%.
For `C=CCC1(CC=C)CCN1C(=O)c1sc2ncn(C)c(=O)c2c1C` [CBK282637], the “% of control remaining” value was 124.912%.
`O=C(N[C@H]1CO[C@H]2[C@@H]1OC[C@@H]2n1cc(-c2ccccc2)nn1)N1CCOCC1` [CBK289503] was tested, and the “% of control remaining” value was 128.152%.
With `COc1cc2nc3c4ccccc4n(CC(=O)O)c3nc2cc1OC` [CBK263626] the “% of control remaining” value was 135.484%.
`CN(C)CCCNC=C1C(=O)CC(C)(C)CC1=O` [CBK262043] was tested, and the “% of control remaining” value was 91.0025%.
For `Cc1cccnc1C(c1ccccc1)N(C)C(=O)C1CCN(C(=O)OCc2ccccc2)CC1` (stereo not shown) [CBK060522], the “% of control remaining” value was 100%.
With `CCOC(=O)Cn1c(CN2CCCCC2C)nc2c1c(=O)n(C)c(=O)n2C` (stereo not shown) [CBK269382] the “% of control remaining” value was 123.961%.
With `Cc1cccc(Nc2nc3nonc3[nH]/c2=N\N=C/c2cn(Cc3ccc(Cl)cc3Cl)c3ccccc23)c1C` [CBK262378] the “% of control remaining” value was 121.182%.
With `c1cncc(COc2nc3ccccc3nc2N2CCCC2)c1` [CBK115762] the “% of control remaining” value was 118.026%.
In the case of `Cn1cc(-c2nc(C(=O)NC3CCCN(c4ncccn4)C3)cs2)cn1` (stereo not shown) [CBK305629], the “% of control remaining” value is reported as 121.093%.
With `O=C(OCc1ccccc1)N1CCC(C(=O)N(CCc2ccccc2)Cc2ccccc2)CC1` [CBK171978] the “% of control remaining” value was 105.065%.
In the case of `CC(=O)CSc1nc2c(c(=O)n(C)c(=O)n2C)n1CCCc1ccccc1` [CBK269581], the “% of control remaining” value is reported as 135.475%.
In the case of `COc1ccc(S(=O)(=O)Nc2ccc(C(=O)O)cc2)cc1OC` [CBK034048], the “% of control remaining” value is reported as 120.201%.
`C/C(=N\Nc1cccc2cccnc12)C(C)(C)C` [CBK021957] was tested, and the “% of control remaining” value was 93.7256%.
For `CC(C)[C@@H](CO)Nc1nc(-c2cncnc2)cnc1N` [CBK063735], the “% of control remaining” value was 198.98%.
In the case of `COc1cccc(NC(=O)NC(=O)C2CCN(C(C)C)CC2)c1` [CBK034798], the “% of control remaining” value is reported as 112.554%.
With `O=C(Nc1ccc2c(c1)nc1n2CCN(Cc2ccccc2)C1)NC1CCCCC1` [CBK267033] the “% of control remaining” value was 97.5371%.
In the case of `Cc1ccc(-c2c[nH]c([C@@H]3COCCN3Cc3c[nH]cn3)n2)cc1` [CBK289315], the “% of control remaining” value is reported as 171.068%.
In the case of `CC(C)(C)c1ccc(O)c(NC(=S)NC(=O)c2ccccc2I)c1` [CBK264399], the “% of control remaining” value is reported as 71.7222%.
For `CS(=O)(=O)N1CCc2cc(-c3csc(NCC(F)(F)F)n3)ccc21` [CBK305650], the “% of control remaining” value was 93.4645%.
With `O=C(Nc1cc(Oc2cccnc2)cc([N+](=O)[O-])c1)c1nn2c(C(F)(F)F)cc(-c3cccs3)nc2c1Br` [CBK262535] the “% of control remaining” value was 100%.
With `Cc1c(O)ccc2c(COC(=O)C3(c4ccccc4)CCCC3)cc(=O)oc12` [CBK295622] the “% of control remaining” value was 130.944%.
For `O=C(NC(c1cccc([N+](=O)[O-])c1)c1cc(Cl)c2cccnc2c1O)c1cccnc1` (stereo not shown) [CBK263987], the “% of control remaining” value was 100%.
For `Cc1cc(C)nc(SCC(=O)Nc2cccc(C(=O)O)c2)n1` [CBK263214], the “% of control remaining” value was 111.867%.
`COc1cc(-c2cncc(N3CCC(C(=O)O)CC3)n2)cc(OC)c1OC` [CBK037973] was tested, and the “% of control remaining” value was 104.56%.
With `COc1ccc2[nH]c3c(c2c1)CCNC31CCN(CCSc2ccccc2)C1` (stereo not shown) [CBK084541T] the “% of control remaining” value was 90.3528%.
With `CN(CC(=O)NCc1ccc(OCC(N)=O)cc1)C1CCCCC1` [CBK306331] the “% of control remaining” value was 153.009%.
For `CC(=O)NCc1cccc(-c2cc(C(=O)NCC3CN(Cc4ccccc4)CCO3)cnc2-c2ccc(Cl)cc2)c1` (stereo not shown) [CBK164416T], the “% of control remaining” value was 103.308%.
In the case of `O=C(CN(c1cccc(Cl)c1)S(=O)(=O)c1ccccc1)Nc1cccc2cccnc12` [CBK263270], the “% of control remaining” value is reported as 86.9757%.
With `Cc1ccc(-c2cnc(NC(=O)Cn3cccn3)n2C)cc1C` [CBK281727] the “% of control remaining” value was 92.4662%.
In the case of `Cn1c(N2CCCC(C(N)=O)C2)nc2ccccc21` (stereo not shown) [CBK282372], the “% of control remaining” value is reported as 154.588%.
With `Cc1ccc(CN[C@@H]2COC[C@H]2Cc2cc(C)no2)cc1` [CBK283030] the “% of control remaining” value was 92.5869%.
With `COC(=O)c1ccc(Oc2nc(OC)cc(OC)n2)cc1` [CBK092221] the “% of control remaining” value was 118.303%.
`C=CCN1CCC2(CC1)CN(C(C)=O)Cc1cc(C)ccc1O2` [CBK282693] was tested, and the “% of control remaining” value was 118.51%.
In the case of `COC(=O)c1c(NC(=O)CC2NCCNC2=O)sc(C)c1C` (stereo not shown) [CBK269447], the “% of control remaining” value is reported as 169.666%.
`CCOc1ccc(-c2nc(CSc3n[nH]c(=O)n3Cc3ccccc3)cs2)cc1` [CBK296737] was tested, and the “% of control remaining” value was 133.939%.
In the case of `CCN(CC)C(=O)Cn1c(=O)n(CC)c2ncccc21` [CBK282347], the “% of control remaining” value is reported as 133.715%.
`Cc1[nH]c(=O)[nH]c(=S)c1C(=O)Nc1ccc2c(c1)OCO2` [CBK115519] was tested, and the “% of control remaining” value was 117.255%.
